Laboratory results: PubChem BioAssay AID652259 (Drosophila RNAi Screening Center, 2013)

Purpose: 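Knock-downs that push a Wingless-driven reporter up or down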 (primary screen)
System: Drosophila clone 8 imaginal disc epithelial cells
Knock-down reagent: long dsRNA against Drosophila genes
Challenge: pathway stimulated by co-transfected Wingless expression plasmid
Read-out: 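Firefly luciferase from a tcf-site Wingless reporter, measured alongside co-transfected Renilla luciferase that tracks transfection; pathway stimulated by a Wingless plasmid; the firefly-to-Renilla ratio is not deposited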
Reading the numbers: firefly reporter light: higher = more Wg reporter light, before normalisation; Renilla control light: higher = more transfected or surviving cells
Active means: 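Strong candidates differ from their plate mean by at least two out of four per-plate statistical tests; weak candidates meet just one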
Calls: active = candidate regulator (raises or lowers reporter); inactive = not a candidate
The screen tested about 22,000 reagents; shown is an unselected part of those with a known target gene and a result. Over the whole deposit, 233 (1.1%) are marked active. 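Light values are raw, unnormalised plate reads; the ratio scores behind the reporter calls were not deposited.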 Names joined by + are all predicted targets of the reagent. Not stated in the record: the amount of reagent, the time to read-out, the dose of the treatment.

Against MstProx + Mst84Da [DRSC12597], the entry reads firefly reporter light, replicate 1 = 14579; Renilla control light, replicate 1 = 4121; inactive.
Silencing of CG16978 [DRSC02553] gave: firefly reporter light, replicate 1 = 4016; firefly reporter light, replicate 2 = 6496; Renilla control light, replicate 1 = 1301; Renilla control light, replicate 2 = 2583; inactive.
For pinta [DRSC14698], the values are firefly reporter light, replicate 1 = 1947; firefly reporter light, replicate 2 = 4492; Renilla control light, replicate 1 = 869; Renilla control light, replicate 2 = 1468; inactive.
For CG8036 [DRSC16366], the entry reads firefly reporter light, replicate 1 = 11687; Renilla control light, replicate 1 = 3747; inactive.
CG8320 + ATPCL [DRSC07147] scored firefly reporter light, replicate 1 = 7296; Renilla control light, replicate 1 = 2467; inactive.
Silencing of CG30411 [DRSC04004] resulted in: firefly reporter light, replicate 1 = 13245; Renilla control light, replicate 1 = 7200; inactive.
With knock-down of CTCF [DRSC11004], the record shows firefly reporter light, replicate 1 = 4363; Renilla control light, replicate 1 = 1072; inactive.
For Fatp3 (Fatty acid transport protein 3) [DRSC04366], the entry reads firefly reporter light, replicate 1 = 2246; firefly reporter light, replicate 2 = 5680; Renilla control light, replicate 1 = 661; Renilla control light, replicate 2 = 1827; inactive.
After knock-down of Pka-C2 (Protein kinase, cAMP-dependent, catalytic subunit 2) [DRSC16790], the record shows firefly reporter light, replicate 1 = 3860; Renilla control light, replicate 1 = 1984; inactive.
Silencing of Prp3 (Precursor RNA processing 3) [DRSC10912] gave: firefly reporter light, replicate 1 = 13384; Renilla control light, replicate 1 = 2652; inactive.
For CG31778 [DRSC00283], the entry reads firefly reporter light, replicate 1 = 12384; Renilla control light, replicate 1 = 4722; inactive.
Against CG5895 [DRSC10554], the entry reads firefly reporter light, replicate 1 = 7872; Renilla control light, replicate 1 = 3527; inactive.
CG12128 [DRSC06104] gave firefly reporter light, replicate 1 = 10477; Renilla control light, replicate 1 = 3414; inactive.
For CG10748 [DRSC09797], the values are firefly reporter light, replicate 1 = 7884; Renilla control light, replicate 1 = 2882; inactive.
For Droj2 (DnaJ-like-2) [DRSC16450] the deposit lists firefly reporter light, replicate 1 = 5879; Renilla control light, replicate 1 = 1968; inactive.
After knock-down of Suv3 (Suv3 helicase) [DRSC12335], the screen gave firefly reporter light, replicate 1 = 6816; Renilla control light, replicate 1 = 2939; inactive.
Against mio (missing oocyte) [DRSC00692], the entry reads firefly reporter light, replicate 1 = 12538; Renilla control light, replicate 1 = 3772; inactive.
Depletion of mio (missing oocyte) [DRSC22056] resulted in: firefly reporter light, replicate 1 = 5.10e5; firefly reporter light, replicate 2 = 5.23e5; Renilla control light, replicate 1 = 1.97e5; Renilla control light, replicate 2 = 1.76e5; inactive.
Knock-down of spoon (spoonbill) [DRSC18299] gave: firefly reporter light, replicate 1 = 1562; firefly reporter light, replicate 2 = 4632; Renilla control light, replicate 1 = 725; Renilla control light, replicate 2 = 1520; inactive.
pirk (poor Imd response upon knock-in) [DRSC04269] showed firefly reporter light, replicate 1 = 2755; firefly reporter light, replicate 2 = 9925; Renilla control light, replicate 1 = 736; Renilla control light, replicate 2 = 2696; inactive.
Depletion of Smurf (SMAD specific E3 ubiquitin protein ligase) [DRSC07641] came out at: firefly reporter light, replicate 1 = 5205; Renilla control light, replicate 1 = 1779; inactive.
With knock-down of Dip-B (Dipeptidase B) [DRSC16466] the results were firefly reporter light, replicate 1 = 4592; Renilla control light, replicate 1 = 1408; inactive.
After knock-down of tea (telomere ends associated) [DRSC06110], the record shows firefly reporter light, replicate 1 = 3661; Renilla control light, replicate 1 = 1252; inactive.
With knock-down of tea (telomere ends associated) [DRSC06236], the screen gave firefly reporter light, replicate 1 = 2296; firefly reporter light, replicate 2 = 7066; Renilla control light, replicate 1 = 645; Renilla control light, replicate 2 = 2393; inactive.
CG15099 [DRSC06528] gave firefly reporter light, replicate 1 = 14640; Renilla control light, replicate 1 = 5370; inactive.

Copied from the entries so far for reference:
MstProx + Mst84Da [DRSC12597] | firefly reporter light, replicate 1: 14579; Renilla control light, replicate 1: 4121; call: inactive
CG16978 [DRSC02553] | firefly reporter light, replicate 1: 4016; firefly reporter light, replicate 2: 6496; Renilla control light, replicate 1: 1301; Renilla control light, replicate 2: 2583; call: inactive
pinta [DRSC14698] | firefly reporter light, replicate 1: 1947; firefly reporter light, replicate 2: 4492; Renilla control light, replicate 1: 869; Renilla control light, replicate 2: 1468; call: inactive
CG8036 [DRSC16366] | firefly reporter light, replicate 1: 11687; Renilla control light, replicate 1: 3747; call: inactive
